Source: publication PMC9120031

Amino acid sequences for entries named in this document (tags omitted). A change or cut given only in a name is not applied to a line headed by its entry.
UniProt Q9JHF5: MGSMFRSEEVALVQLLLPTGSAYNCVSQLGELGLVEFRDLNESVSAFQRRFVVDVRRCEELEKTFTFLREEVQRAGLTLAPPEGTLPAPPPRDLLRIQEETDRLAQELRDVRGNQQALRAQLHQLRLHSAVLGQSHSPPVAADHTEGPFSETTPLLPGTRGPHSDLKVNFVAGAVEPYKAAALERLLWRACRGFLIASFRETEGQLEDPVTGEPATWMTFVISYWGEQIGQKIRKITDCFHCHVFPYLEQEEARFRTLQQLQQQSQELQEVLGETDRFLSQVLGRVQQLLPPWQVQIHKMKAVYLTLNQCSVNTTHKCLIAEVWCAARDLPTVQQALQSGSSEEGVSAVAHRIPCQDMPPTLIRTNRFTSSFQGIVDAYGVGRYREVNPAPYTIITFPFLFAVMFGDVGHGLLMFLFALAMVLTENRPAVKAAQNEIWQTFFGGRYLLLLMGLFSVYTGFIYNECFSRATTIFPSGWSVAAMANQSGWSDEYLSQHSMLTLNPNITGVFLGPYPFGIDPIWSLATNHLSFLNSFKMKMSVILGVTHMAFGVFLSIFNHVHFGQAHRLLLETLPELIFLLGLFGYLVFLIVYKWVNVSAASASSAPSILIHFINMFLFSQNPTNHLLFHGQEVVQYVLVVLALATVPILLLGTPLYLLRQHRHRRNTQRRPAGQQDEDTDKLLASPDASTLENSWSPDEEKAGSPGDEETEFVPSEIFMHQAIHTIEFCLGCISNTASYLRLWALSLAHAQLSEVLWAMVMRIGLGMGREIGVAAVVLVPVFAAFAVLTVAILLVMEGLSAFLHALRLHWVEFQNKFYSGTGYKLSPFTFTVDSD

B1: V5-Mon1A deletion mutant 97-556 (domain or fragment, UniProt Q6PDG8 97-556)
chain: LSTQLTGVARDLQEEMLPGSSEDWPEPQGAAGRGAATEPSQEGSTEGEEEDATEAWRLHQKHVFVLSEAGKPVYSRYGSEEALSSTMGVMVALVSFLEADKNAIRSIHADGYKVVFVRRSPLVLVAVARTRQSAQELAQELLYIYYQILSLLTGAQLSHIFQQKQNYDLRRLLSGSERITDNLLQLMARDPSFLMGAARCLPLAAAVRDTVSASLQQARARSLVFSILLAHNQLVALVRRKDQFLHPIDLHLLFNLISSSSSFREGEAWTPVCLPKFNAAGFFHAHISYLEPDTDLCLLLISTDREDFFAVSDCRRRFQERLRKRGTHLALREALRTPYYSVAQVGIPDLRHFLYKSKSSGLFTSPEIEAPYSSEEEQERLLGLYQYLHSRAHNASRPLKTIYYTGPNENLLAWVTGAFELYMCYSPLGTKASAVSAIHKLMRWIRKEEDRLFILTPLTY
B2: V5-Mon1A deletion mutant 117-556 (domain or fragment, UniProt Q6PDG8 117-556)
chain: SEDWPEPQGAAGRGAATEPSQEGSTEGEEEDATEAWRLHQKHVFVLSEAGKPVYSRYGSEEALSSTMGVMVALVSFLEADKNAIRSIHADGYKVVFVRRSPLVLVAVARTRQSAQELAQELLYIYYQILSLLTGAQLSHIFQQKQNYDLRRLLSGSERITDNLLQLMARDPSFLMGAARCLPLAAAVRDTVSASLQQARARSLVFSILLAHNQLVALVRRKDQFLHPIDLHLLFNLISSSSSFREGEAWTPVCLPKFNAAGFFHAHISYLEPDTDLCLLLISTDREDFFAVSDCRRRFQERLRKRGTHLALREALRTPYYSVAQVGIPDLRHFLYKSKSSGLFTSPEIEAPYSSEEEQERLLGLYQYLHSRAHNASRPLKTIYYTGPNENLLAWVTGAFELYMCYSPLGTKASAVSAIHKLMRWIRKEEDRLFILTPLTY
B3: V5-Mon1A deletion mutant 137-556 (domain or fragment, UniProt Q6PDG8 137-556)
chain: QEGSTEGEEEDATEAWRLHQKHVFVLSEAGKPVYSRYGSEEALSSTMGVMVALVSFLEADKNAIRSIHADGYKVVFVRRSPLVLVAVARTRQSAQELAQELLYIYYQILSLLTGAQLSHIFQQKQNYDLRRLLSGSERITDNLLQLMARDPSFLMGAARCLPLAAAVRDTVSASLQQARARSLVFSILLAHNQLVALVRRKDQFLHPIDLHLLFNLISSSSSFREGEAWTPVCLPKFNAAGFFHAHISYLEPDTDLCLLLISTDREDFFAVSDCRRRFQERLRKRGTHLALREALRTPYYSVAQVGIPDLRHFLYKSKSSGLFTSPEIEAPYSSEEEQERLLGLYQYLHSRAHNASRPLKTIYYTGPNENLLAWVTGAFELYMCYSPLGTKASAVSAIHKLMRWIRKEEDRLFILTPLTY
B4: V5-Mon1A deletion mutant 1-288 (domain or fragment, UniProt Q6PDG8 1-288)
chain: MAADMQRKRSSECPEGTLAPSNGQSVERAESPTPGLTQGTEPGAGQEGAMFVHTRSYEDLTELEDREASGDSPKECVGSPPPLATDMRQISQDFSELSTQLTGVARDLQEEMLPGSSEDWPEPQGAAGRGAATEPSQEGSTEGEEEDATEAWRLHQKHVFVLSEAGKPVYSRYGSEEALSSTMGVMVALVSFLEADKNAIRSIHADGYKVVFVRRSPLVLVAVARTRQSAQELAQELLYIYYQILSLLTGAQLSHIFQQKQNYDLRRLLSGSERITDNLLQLMARDPS
B5: V5-Mon1A deletion mutant 1-266 (domain or fragment, UniProt Q6PDG8 1-266)
chain: MAADMQRKRSSECPEGTLAPSNGQSVERAESPTPGLTQGTEPGAGQEGAMFVHTRSYEDLTELEDREASGDSPKECVGSPPPLATDMRQISQDFSELSTQLTGVARDLQEEMLPGSSEDWPEPQGAAGRGAATEPSQEGSTEGEEEDATEAWRLHQKHVFVLSEAGKPVYSRYGSEEALSSTMGVMVALVSFLEADKNAIRSIHADGYKVVFVRRSPLVLVAVARTRQSAQELAQELLYIYYQILSLLTGAQLSHIFQQKQNYDLR
B6: V5-Mon1A deletion mutant 1-246 (domain or fragment, UniProt Q6PDG8 1-246)
chain: MAADMQRKRSSECPEGTLAPSNGQSVERAESPTPGLTQGTEPGAGQEGAMFVHTRSYEDLTELEDREASGDSPKECVGSPPPLATDMRQISQDFSELSTQLTGVARDLQEEMLPGSSEDWPEPQGAAGRGAATEPSQEGSTEGEEEDATEAWRLHQKHVFVLSEAGKPVYSRYGSEEALSSTMGVMVALVSFLEADKNAIRSIHADGYKVVFVRRSPLVLVAVARTRQSAQELAQELLYIYYQILS
B7: V5-Mon1A deletion mutant 117-266 (domain or fragment, UniProt Q6PDG8 117-266)
chain: SEDWPEPQGAAGRGAATEPSQEGSTEGEEEDATEAWRLHQKHVFVLSEAGKPVYSRYGSEEALSSTMGVMVALVSFLEADKNAIRSIHADGYKVVFVRRSPLVLVAVARTRQSAQELAQELLYIYYQILSLLTGAQLSHIFQQKQNYDLR
B8: V5-Ccz1 deletion mutant 20-480 (domain or fragment, UniProt Q8C1Y8 20-480)
chain: PALLSFFIYNPRFGPREGEEENKILFYHPNEVEKNEKIRNVGLCEAIVQFTRTFSPSKPAKSLHTQKNRQFFNEPEENFWMVMVVRNPIIEKQSKDGKAVVEYQEEELLDKVYSSVLQQCYSMYKLFNGTFLKAMEDGGVKLLKERLEKFFHRYLQTLHLQSCDLLDIFGGISFFPLDKMTYLKIQSFINRMEESLSVVKYTAFLYNDQLIWSGLEQDDMRILYKYLTTSLFPRHIEPELAGRDSPVRAEMPGNLQHYGRFLTGPLNLNDPEAKCRFPKIFVNTDDTYEELHLIVYKAMSAAVCFMIDASTPLTLDFCRRLDSIVGPQLTVLASDICEQFNINKRISGSEKEPQFKFIYFNHMNLAEKSTIHMRKTPSVSLTSVHPDLMKILGDINSDFTRADEDEEIIVKAMSDYWVVGKKSDQRELYVILSQKNANLIEVNEEVKKLCATQFNNIFFLD
B9: V5-Ccz1 deletion mutant 38-480 (domain or fragment, UniProt Q8C1Y8 38-480)
chain: EEENKILFYHPNEVEKNEKIRNVGLCEAIVQFTRTFSPSKPAKSLHTQKNRQFFNEPEENFWMVMVVRNPIIEKQSKDGKAVVEYQEEELLDKVYSSVLQQCYSMYKLFNGTFLKAMEDGGVKLLKERLEKFFHRYLQTLHLQSCDLLDIFGGISFFPLDKMTYLKIQSFINRMEESLSVVKYTAFLYNDQLIWSGLEQDDMRILYKYLTTSLFPRHIEPELAGRDSPVRAEMPGNLQHYGRFLTGPLNLNDPEAKCRFPKIFVNTDDTYEELHLIVYKAMSAAVCFMIDASTPLTLDFCRRLDSIVGPQLTVLASDICEQFNINKRISGSEKEPQFKFIYFNHMNLAEKSTIHMRKTPSVSLTSVHPDLMKILGDINSDFTRADEDEEIIVKAMSDYWVVGKKSDQRELYVILSQKNANLIEVNEEVKKLCATQFNNIFFLD
B10: V5-Ccz1 deletion mutant 1-250 (domain or fragment, UniProt Q8C1Y8 1-250)
chain: MAAAAAGPGAWAAQEKQFPPALLSFFIYNPRFGPREGEEENKILFYHPNEVEKNEKIRNVGLCEAIVQFTRTFSPSKPAKSLHTQKNRQFFNEPEENFWMVMVVRNPIIEKQSKDGKAVVEYQEEELLDKVYSSVLQQCYSMYKLFNGTFLKAMEDGGVKLLKERLEKFFHRYLQTLHLQSCDLLDIFGGISFFPLDKMTYLKIQSFINRMEESLSVVKYTAFLYNDQLIWSGLEQDDMRILYKYLTTSL
B11: V5-Ccz1 deletion mutant 20-250 (domain or fragment, UniProt Q8C1Y8 20-250)
chain: PALLSFFIYNPRFGPREGEEENKILFYHPNEVEKNEKIRNVGLCEAIVQFTRTFSPSKPAKSLHTQKNRQFFNEPEENFWMVMVVRNPIIEKQSKDGKAVVEYQEEELLDKVYSSVLQQCYSMYKLFNGTFLKAMEDGGVKLLKERLEKFFHRYLQTLHLQSCDLLDIFGGISFFPLDKMTYLKIQSFINRMEESLSVVKYTAFLYNDQLIWSGLEQDDMRILYKYLTTSL
B12: V5-Ccz1 deletion mutant 38-250 (domain or fragment, UniProt Q8C1Y8 38-250)
chain: EEENKILFYHPNEVEKNEKIRNVGLCEAIVQFTRTFSPSKPAKSLHTQKNRQFFNEPEENFWMVMVVRNPIIEKQSKDGKAVVEYQEEELLDKVYSSVLQQCYSMYKLFNGTFLKAMEDGGVKLLKERLEKFFHRYLQTLHLQSCDLLDIFGGISFFPLDKMTYLKIQSFINRMEESLSVVKYTAFLYNDQLIWSGLEQDDMRILYKYLTTSL

These binders were tested against FLAG-tagged a3N (amino-terminal half of a3, amino acids 1-386) (UniProt Q9JHF5) (assay: co-IP; FLAG- and V5-tagged proteins co-expressed in HEK293T cells; lysed 48 h after transfection in IP buffer (1% Triton X-100, 10% glycerol, 50 mM Tris-HCl pH 7.4, 150 mM NaCl, 1 mM dithiothreitol, 1 mM EDTA); precipitated with anti-FLAG antibody; western blot with anti-V5 (or anti-A subunit) antibody).
B1 was tested, and the binding was “binds”. For B2, the binding was “binds”. For B3, the binding was “binds weakly”. In the case of B4, the binding is reported as “binds”. For B5, the binding was “binds”. B6 was tested, and the binding was “binds weakly”. With B7 the binding was “binds”. With B8 the binding was “binds”. With B9 the binding was “binds”. For B10, the binding was “binds”. In the case of B11, the binding is reported as “binds”. For B12, the binding was “binds”.

Results are given in words; binding and its absence hold for the method and conditions named. Binding seen in cells or lysates may run through a third protein. Binding can be weak; no strength is given. Sequences can lack the tags named with a protein.
